The results in this text go back to PMC8714094.

Protein sequences, listed by entry. Tags and fused reporters are not part of them. Lines headed by an entry give the natural chain unless they say otherwise; changes in a name come on top. Chains listed by the source or under a name are the forms on record and can include a tag or linker. Residues count along the entry.
UniProt P63101: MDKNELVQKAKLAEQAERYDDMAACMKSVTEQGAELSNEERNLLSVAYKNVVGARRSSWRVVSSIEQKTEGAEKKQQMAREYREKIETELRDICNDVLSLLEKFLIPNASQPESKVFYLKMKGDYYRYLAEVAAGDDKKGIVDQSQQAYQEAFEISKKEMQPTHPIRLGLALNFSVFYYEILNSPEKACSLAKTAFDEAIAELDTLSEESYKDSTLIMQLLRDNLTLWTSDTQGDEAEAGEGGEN
UniProt P63104: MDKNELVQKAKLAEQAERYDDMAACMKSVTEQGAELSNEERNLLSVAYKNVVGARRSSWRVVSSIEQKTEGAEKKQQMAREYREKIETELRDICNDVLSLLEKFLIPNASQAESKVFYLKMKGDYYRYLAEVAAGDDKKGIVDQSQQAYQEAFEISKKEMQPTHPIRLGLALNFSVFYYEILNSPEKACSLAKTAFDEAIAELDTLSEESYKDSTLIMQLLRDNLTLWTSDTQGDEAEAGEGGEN
UniProt P62258: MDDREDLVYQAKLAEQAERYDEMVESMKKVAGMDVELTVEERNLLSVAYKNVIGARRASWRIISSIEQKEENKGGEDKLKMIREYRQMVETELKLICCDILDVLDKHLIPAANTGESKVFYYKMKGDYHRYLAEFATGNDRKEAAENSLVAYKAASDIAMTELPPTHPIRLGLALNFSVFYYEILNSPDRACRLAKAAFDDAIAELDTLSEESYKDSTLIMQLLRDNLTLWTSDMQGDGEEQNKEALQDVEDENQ
UniProt Q01097, residues 27-1482: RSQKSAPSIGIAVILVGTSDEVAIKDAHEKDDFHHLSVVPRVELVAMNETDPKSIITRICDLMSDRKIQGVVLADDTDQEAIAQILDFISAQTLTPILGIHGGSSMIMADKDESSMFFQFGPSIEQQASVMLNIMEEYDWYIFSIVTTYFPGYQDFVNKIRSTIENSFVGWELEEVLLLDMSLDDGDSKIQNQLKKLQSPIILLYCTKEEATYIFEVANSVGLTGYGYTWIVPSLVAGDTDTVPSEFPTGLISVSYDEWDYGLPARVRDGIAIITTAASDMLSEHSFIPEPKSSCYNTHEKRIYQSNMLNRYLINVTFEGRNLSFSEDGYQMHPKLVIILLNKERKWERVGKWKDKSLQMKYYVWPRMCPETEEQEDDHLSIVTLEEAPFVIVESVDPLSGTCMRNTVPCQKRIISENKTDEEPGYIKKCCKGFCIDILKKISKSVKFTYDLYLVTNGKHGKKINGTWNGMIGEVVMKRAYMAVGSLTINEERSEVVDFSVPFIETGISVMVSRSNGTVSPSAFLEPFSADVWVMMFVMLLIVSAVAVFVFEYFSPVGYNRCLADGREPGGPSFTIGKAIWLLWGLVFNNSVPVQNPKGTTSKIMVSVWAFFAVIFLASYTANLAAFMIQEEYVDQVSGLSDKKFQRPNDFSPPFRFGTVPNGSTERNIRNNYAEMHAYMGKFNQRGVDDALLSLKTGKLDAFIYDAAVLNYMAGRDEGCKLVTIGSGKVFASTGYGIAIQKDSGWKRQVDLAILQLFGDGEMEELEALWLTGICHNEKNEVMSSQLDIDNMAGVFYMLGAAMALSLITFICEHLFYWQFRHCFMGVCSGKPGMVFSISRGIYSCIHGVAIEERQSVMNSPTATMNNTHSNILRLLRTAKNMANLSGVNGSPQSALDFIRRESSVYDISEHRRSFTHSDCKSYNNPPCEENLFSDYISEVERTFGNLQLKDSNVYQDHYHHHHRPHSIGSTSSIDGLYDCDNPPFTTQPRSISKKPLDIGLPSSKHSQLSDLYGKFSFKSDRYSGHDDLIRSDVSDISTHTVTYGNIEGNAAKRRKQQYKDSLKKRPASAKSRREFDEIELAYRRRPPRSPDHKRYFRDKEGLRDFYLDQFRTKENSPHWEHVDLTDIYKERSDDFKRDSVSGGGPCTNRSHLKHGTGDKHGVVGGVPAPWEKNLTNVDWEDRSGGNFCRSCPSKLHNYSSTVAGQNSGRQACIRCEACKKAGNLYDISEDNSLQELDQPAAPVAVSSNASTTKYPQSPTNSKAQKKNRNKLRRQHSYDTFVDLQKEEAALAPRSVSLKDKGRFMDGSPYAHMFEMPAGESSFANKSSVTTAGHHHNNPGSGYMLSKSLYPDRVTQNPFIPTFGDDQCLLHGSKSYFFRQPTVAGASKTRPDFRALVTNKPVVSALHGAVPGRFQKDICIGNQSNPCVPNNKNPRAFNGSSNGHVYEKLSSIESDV
GluN2B (Q00960, residues 27-1482): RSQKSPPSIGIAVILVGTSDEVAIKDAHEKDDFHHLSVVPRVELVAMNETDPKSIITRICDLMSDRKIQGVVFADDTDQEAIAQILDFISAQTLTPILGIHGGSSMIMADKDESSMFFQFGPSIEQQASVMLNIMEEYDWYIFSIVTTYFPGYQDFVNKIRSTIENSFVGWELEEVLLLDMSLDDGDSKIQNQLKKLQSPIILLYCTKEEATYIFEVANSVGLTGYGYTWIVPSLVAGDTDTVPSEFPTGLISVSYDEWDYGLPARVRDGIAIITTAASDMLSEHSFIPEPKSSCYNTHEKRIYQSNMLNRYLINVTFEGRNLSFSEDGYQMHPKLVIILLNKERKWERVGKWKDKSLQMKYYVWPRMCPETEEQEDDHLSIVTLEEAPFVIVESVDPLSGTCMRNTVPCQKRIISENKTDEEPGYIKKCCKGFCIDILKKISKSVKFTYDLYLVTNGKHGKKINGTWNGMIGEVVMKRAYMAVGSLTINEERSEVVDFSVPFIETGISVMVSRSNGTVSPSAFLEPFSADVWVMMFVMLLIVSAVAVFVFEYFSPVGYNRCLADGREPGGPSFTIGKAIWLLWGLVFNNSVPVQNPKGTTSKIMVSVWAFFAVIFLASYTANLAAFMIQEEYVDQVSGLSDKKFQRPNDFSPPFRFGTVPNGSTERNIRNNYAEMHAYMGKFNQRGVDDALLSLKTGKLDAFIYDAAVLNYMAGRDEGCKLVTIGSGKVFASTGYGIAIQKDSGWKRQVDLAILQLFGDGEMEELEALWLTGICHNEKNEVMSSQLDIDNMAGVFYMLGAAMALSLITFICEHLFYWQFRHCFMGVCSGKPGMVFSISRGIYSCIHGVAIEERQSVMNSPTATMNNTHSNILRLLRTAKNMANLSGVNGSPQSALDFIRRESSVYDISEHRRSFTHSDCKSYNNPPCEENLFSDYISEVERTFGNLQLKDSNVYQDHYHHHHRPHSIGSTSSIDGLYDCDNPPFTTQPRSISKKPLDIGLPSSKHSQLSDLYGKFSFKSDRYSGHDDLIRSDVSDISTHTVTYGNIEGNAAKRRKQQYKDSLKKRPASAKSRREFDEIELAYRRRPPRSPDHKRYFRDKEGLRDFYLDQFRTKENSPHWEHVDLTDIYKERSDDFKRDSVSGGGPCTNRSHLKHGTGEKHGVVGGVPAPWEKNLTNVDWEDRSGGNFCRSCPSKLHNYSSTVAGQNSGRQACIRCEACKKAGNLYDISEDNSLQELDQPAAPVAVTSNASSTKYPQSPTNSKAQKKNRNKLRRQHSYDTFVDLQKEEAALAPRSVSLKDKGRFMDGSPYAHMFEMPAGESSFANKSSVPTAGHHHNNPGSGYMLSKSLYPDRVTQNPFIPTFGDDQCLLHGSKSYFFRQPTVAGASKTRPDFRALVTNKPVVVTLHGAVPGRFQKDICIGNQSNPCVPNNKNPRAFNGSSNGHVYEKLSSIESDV
GluN2B S1303A/S1323A (Q00960, form named): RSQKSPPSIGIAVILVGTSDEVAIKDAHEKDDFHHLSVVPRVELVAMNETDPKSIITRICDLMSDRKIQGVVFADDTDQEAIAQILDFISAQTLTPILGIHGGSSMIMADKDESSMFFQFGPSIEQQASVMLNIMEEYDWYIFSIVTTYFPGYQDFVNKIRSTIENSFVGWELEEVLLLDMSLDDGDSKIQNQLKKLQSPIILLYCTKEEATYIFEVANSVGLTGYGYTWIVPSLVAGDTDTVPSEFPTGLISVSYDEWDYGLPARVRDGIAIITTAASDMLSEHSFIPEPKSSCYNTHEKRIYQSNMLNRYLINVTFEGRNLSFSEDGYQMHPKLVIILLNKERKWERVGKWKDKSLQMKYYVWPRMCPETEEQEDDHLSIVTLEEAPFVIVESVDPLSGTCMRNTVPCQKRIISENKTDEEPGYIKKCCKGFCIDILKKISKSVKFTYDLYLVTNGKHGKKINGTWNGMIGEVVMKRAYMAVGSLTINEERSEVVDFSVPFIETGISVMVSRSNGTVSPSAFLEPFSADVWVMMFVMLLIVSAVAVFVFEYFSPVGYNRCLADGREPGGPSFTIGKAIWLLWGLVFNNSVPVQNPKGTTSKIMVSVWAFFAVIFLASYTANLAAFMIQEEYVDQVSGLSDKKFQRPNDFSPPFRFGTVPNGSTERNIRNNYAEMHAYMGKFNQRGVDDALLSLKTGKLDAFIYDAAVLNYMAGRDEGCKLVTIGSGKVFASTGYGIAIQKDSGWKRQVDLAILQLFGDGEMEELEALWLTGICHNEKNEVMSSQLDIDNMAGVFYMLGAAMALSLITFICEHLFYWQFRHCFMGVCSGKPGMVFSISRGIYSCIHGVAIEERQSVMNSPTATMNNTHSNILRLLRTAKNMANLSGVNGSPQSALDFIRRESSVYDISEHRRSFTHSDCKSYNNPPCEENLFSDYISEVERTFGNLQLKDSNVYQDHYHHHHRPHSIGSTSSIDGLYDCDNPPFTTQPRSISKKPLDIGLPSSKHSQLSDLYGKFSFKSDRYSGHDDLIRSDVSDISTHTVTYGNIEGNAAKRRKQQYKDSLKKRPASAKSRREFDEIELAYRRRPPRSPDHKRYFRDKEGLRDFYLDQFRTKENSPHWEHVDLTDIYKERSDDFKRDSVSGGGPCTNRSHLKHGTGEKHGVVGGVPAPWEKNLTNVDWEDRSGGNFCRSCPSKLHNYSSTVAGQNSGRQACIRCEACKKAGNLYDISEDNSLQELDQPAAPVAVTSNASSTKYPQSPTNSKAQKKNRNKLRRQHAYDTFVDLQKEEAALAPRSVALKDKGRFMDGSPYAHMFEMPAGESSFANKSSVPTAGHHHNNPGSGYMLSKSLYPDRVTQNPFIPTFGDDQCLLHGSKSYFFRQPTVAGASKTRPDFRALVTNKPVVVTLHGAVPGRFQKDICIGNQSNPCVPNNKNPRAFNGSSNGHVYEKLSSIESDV

Experiment [1] addresses 14-3-3ζ (endogenous, mouse hippocampus) (mouse (endogenous in hippocampus)) (UniProt P63101). In words: co-IP; mouse hippocampal lysate in RIPA buffer; IP with rabbit polyclonal anti-14-3-3ζ, rabbit IgG (anti-mCherry) as negative control; six washes with RIPA containing 0.2% SDS; blots for GluN1, GluN2A, GluN2B.
Experiment [2] deals with HA-tagged 14-3-3ζ (human) (UniProt P63104). In words: co-IP; tsA201 cells co-expressing GluN1-1a and GluN2B with HA-14-3-3ζ or ε; anti-HA IP from lysate (1% Triton X-100, 10 mM EDTA, 120 mM NaCl, 50 mM KCl, 50 mM NaF, 2 mM DTT), blots for GluN1 and GluN2B.
The target of experiment [3] is HA-tagged 14-3-3ε (human) (UniProt P62258). In words: co-IP; tsA201 cells expressing GluN2B S1303A/S1323A and GluN1 with HA-14-3-3ζ or ε; anti-HA IP, blots for GluN1 and GluN2B; preliminary findings.
Experiment [4] concerns the target HA-tagged 14-3-3ζ (human) (UniProt P63104). The experiment is described as above.
Experiment [5] shares this target. In words: co-IP; tsA201 cells co-expressing GluN1-1a and GluN2A with HA-14-3-3ζ or ε; anti-HA IP from lysate (1% Triton X-100, 10 mM EDTA, 120 mM NaCl, 50 mM KCl, 50 mM NaF, 2 mM DTT), blots for GluN1 and GluN2A.
The target of experiment [6] is HA-tagged 14-3-3ε (human) (UniProt P62258). In words: co-IP; tsA201 cells expressing GluN2A S1291A/S1312A and GluN1 with HA-14-3-3ζ or ε; anti-HA IP, blots for GluN1 and GluN2A; preliminary findings.
Experiment [7] has as its target HA-tagged 14-3-3ζ (human) (UniProt P63104). Described as above.

No constants are given. Whether binding was seen depends on the method and setting. In cells and extracts the contact can be indirect. Some results given as binding are weak or reduced against the parent protein; the word gives no strength.

“GluN2A (endogenous, mouse hippocampus) (from UniProt P35436 23-1464) (receptor)”: the binding entry in experiment [1] is reported as “binds”.
Same read-out and setting: in the case of “GluN2B (endogenous, mouse hippocampus) (from UniProt Q01097 27-1482) (receptor)” it was “binds”.
For the substance “GluN2B (from UniProt Q00960 27-1482) (receptor)”, in experiment [2], the binding result is given as “binds”.
“GluN2B S1303A/S1323A (from UniProt Q00960 27-1482) (receptor)”: the binding result in experiment [3] and in experiment [4] was “binds” in each case.
“GluN2A (from UniProt Q00959 23-1464) (receptor)”: the binding entry in experiment [5] is reported as “binds”.
For the substance “GluN2A S1291A/S1312A (from UniProt Q00959 23-1464) (receptor)”, the binding entry in experiment [6] and in experiment [7] was “binds” each time.
